Values after ≈ are worked out from the molar mass of the structure shown.
Key:
S. aureus = assay: Minimum inhibitory concentration (MIC); type: cell-based; conditions: Staphylococcus aureus
E. coli strain MG1655 = assay: Minimum inhibitory concentration (MIC) in rich LB medium; type: cell-based; conditions: Escherichia coli

Question: Which results are given for O=C(O)c1cn(C2CC2)c2cc(N3CCNCC3)c(F)cc2c1=O [ciprofloxacin]?
Answer: MIC (S. aureus): 250 µg/mL (≈ 754 µM); MIC (E. coli strain MG1655): 0.008 to 0.01 µg/mL (≈ 0.0241 to 0.0302 µM)
